# According to the supplement of paper PMC8728848:
# Some of the results follow.
# B1: Mincle (Bos taurus) (protein)
# chain: MNSSTSPASQTERRCFSFQLFSWAIAGTSILLLSACFITRCVVTYSIFQLCDEKKFQPPGDSMELSCYNDGSGSVKNCCPLKWFHFQSSCYLFSPDTMSWRASLKNCSSMGAHLVVINTQEEQEFLYYTKPRKKEFYIGLTDQVTEGQWQWVDGTPFTKSLSFWDAGEPNNLVIVEDCATIRDSSNPRQNWNDVPCFFNMFRVCEMPERKI
# Tests used:
# Assay in all cases: glycan array binding signal (z-score within array); higher = stronger binding
# Conditions in all cases: glycan notation: IUPAC condensed, linker removed
# [1] = molecular target: Fuc(a1-2)Gal6S(b1-3)GlcNAc6S
# Procedure, shortened: (§1)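 From the Consortium for Functional Glycomics database, 3228 arrays were curated, keeping only those whose protein sequence was available. Binding is given as a within-array Z-score averaged across arrays sharing a protein sequence and across linkers. Negative Z-scores can be read as non-binding.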
# [2] = molecular target: Fuc(a1-2)Gal6S(b1-4)Glc
# Procedure, shortened: as §1
# [3] = molecular target: Fuc(a1-2)Gal6S(b1-4)Glc6S
# Procedure, shortened: as §1
# [4] = molecular target: Fuc(a1-2)[Gal(a1-3)]Gal
# Procedure, shortened: as §1
# [5] = molecular target: Fuc(a1-2)[Gal(a1-3)]Gal(b1-3)GalNAc
# Procedure, shortened: as §1
# [6] = molecular target: Fuc(a1-2)[Gal(a1-3)]Gal(b1-3)GalNAc(b1-3)Gal(a1-4)Gal(b1-4)Glc
# Procedure, shortened: as §1
# [7] = molecular target: Fuc(a1-2)[Gal(a1-3)]Gal(b1-3)GlcNAc
# Procedure, shortened: as §1
# [8] = molecular target: Fuc(a1-2)[Gal(a1-3)]Gal(b1-3)GlcNAc(b1-2)Man(a1-3)[Fuc(a1-2)[Gal(a1-3)]Gal(b1-3)GlcNAc(b1-2)Man(a1-6)]Man(b1-4)GlcNAc(b1-4)GlcNAc
# Procedure, shortened: as §1
# [9] = molecular target: Fuc(a1-2)[Gal(a1-3)]Gal(b1-3)GlcNAc(b1-2)Man(a1-3)[Fuc(a1-2)[Gal(a1-3)]Gal(b1-3)GlcNAc(b1-2)Man(a1-6)]Man(b1-4)GlcNAc(b1-4)[Fuc(a1-6)]GlcNAc
# Procedure, shortened: as §1
# [10] = molecular target: Fuc(a1-2)[Gal(a1-3)]Gal(b1-3)GlcNAc(b1-3)GalNAc
# Procedure, shortened: as §1
# [11] = molecular target: Fuc(a1-2)[Gal(a1-3)]Gal(b1-3)GlcNAc(b1-6)GalNAc
# Procedure, shortened: as §1
# [12] = molecular target: Fuc(a1-2)[Gal(a1-3)]Gal(b1-4)Glc
# Procedure, shortened: as §1
# [13] = molecular target: Fuc(a1-2)[Gal(a1-3)]Gal(b1-4)GlcNAc
# Procedure, shortened: as §1
# [14] = molecular target: Fuc(a1-2)[Gal(a1-3)]Gal(b1-4)GlcNAc(b1-2)Man
# Procedure, shortened: as §1
# [15] = molecular target: Fuc(a1-2)[Gal(a1-3)]Gal(b1-4)GlcNAc(b1-2)Man(a1-3)[Fuc(a1-2)[Gal(a1-3)]Gal(b1-4)GlcNAc(b1-2)Man(a1-6)]Man(b1-4)GlcNAc(b1-4)GlcNAc
# Procedure, shortened: as §1
# [16] = molecular target: Fuc(a1-2)[Gal(a1-3)]Gal(b1-4)GlcNAc(b1-2)Man(a1-3)[Fuc(a1-2)[Gal(a1-3)]Gal(b1-4)GlcNAc(b1-2)Man(a1-6)]Man(b1-4)GlcNAc(b1-4)[Fuc(a1-6)]GlcNAc
# Procedure, shortened: as §1
# [17] = molecular target: Fuc(a1-2)[Gal(a1-3)]Gal(b1-4)GlcNAc(b1-3)GalNAc
# Procedure, shortened: as §1
# [18] = molecular target: Fuc(a1-2)[Gal(a1-3)]Gal(b1-4)GlcNAc(b1-3)[Fuc(a1-2)[Gal(a1-3)]Gal(b1-4)GlcNAc(b1-6)]GalNAc
# Procedure, shortened: as §1
# [19] = molecular target: Fuc(a1-2)[Gal(a1-3)]Gal(b1-4)GlcNAc(b1-6)GalNAc
# Procedure, shortened: as §1
# [20] = molecular target: Fuc(a1-2)[Gal(a1-3)]Gal(b1-4)[Fuc(a1-3)]Glc
# Procedure, shortened: as §1
# [21] = molecular target: Fuc(a1-2)[Gal(a1-3)]Gal(b1-4)[Fuc(a1-3)]GlcNAc
# Procedure, shortened: as §1
# [22] = molecular target: Fuc(a1-2)[Gal(a1-3)]Gal(b1-4)[Fuc(a1-3)]GlcNAc(b1-3)GalNAc
# Procedure, shortened: as §1
# [23] = molecular target: Fuc(a1-2)[Gal(a1-4)]Gal(b1-4)GlcNAc
# Procedure, shortened: as §1
# [24] = molecular target: Fuc(a1-2)[GalNAc(a1-3)]Gal
# Procedure, shortened: as §1
# [25] = molecular target: Fuc(a1-2)[GalNAc(a1-3)]Gal(b1-3)GalNAc(a1-3)[Fuc(a1-2)]Gal(b1-4)GlcNAc
# Procedure, shortened: as §1
# [26] = molecular target: Fuc(a1-2)[GalNAc(a1-3)]Gal(b1-3)GalNAc(b1-3)Gal(a1-4)Gal(b1-4)Glc
# Procedure, shortened: as §1
# [27] = molecular target: Fuc(a1-2)[GalNAc(a1-3)]Gal(b1-3)GlcNAc
# Procedure, shortened: as §1
# [28] = molecular target: Fuc(a1-2)[GalNAc(a1-3)]Gal(b1-3)GlcNAc(b1-2)Man(a1-3)[Fuc(a1-2)[GalNAc(a1-3)]Gal(b1-3)GlcNAc(b1-2)Man(a1-6)]Man(b1-4)GlcNAc(b1-4)GlcNAc
# Procedure, shortened: as §1
# [29] = molecular target: Fuc(a1-2)[GalNAc(a1-3)]Gal(b1-3)GlcNAc(b1-2)Man(a1-3)[Fuc(a1-2)[GalNAc(a1-3)]Gal(b1-3)GlcNAc(b1-2)Man(a1-6)]Man(b1-4)GlcNAc(b1-4)[Fuc(a1-6)]GlcNAc
# Procedure, shortened: as §1
# [30] = molecular target: Fuc(a1-2)[GalNAc(a1-3)]Gal(b1-3)GlcNAc(b1-3)GalNAc
# Procedure, shortened: as §1
# [31] = molecular target: Fuc(a1-2)[GalNAc(a1-3)]Gal(b1-3)GlcNAc(b1-6)GalNAc
# Procedure, shortened: as §1
# [32] = molecular target: Fuc(a1-2)[GalNAc(a1-3)]Gal(b1-4)Glc
# Procedure, shortened: as §1
# [33] = molecular target: Fuc(a1-2)[GalNAc(a1-3)]Gal(b1-4)GlcNAc
# Procedure, shortened: as §1
# [34] = molecular target: Fuc(a1-2)[GalNAc(a1-3)]Gal(b1-4)GlcNAc(b1-2)Man
# Procedure, shortened: as §1
# [35] = molecular target: Fuc(a1-2)[GalNAc(a1-3)]Gal(b1-4)GlcNAc(b1-2)Man(a1-3)[Fuc(a1-2)[GalNAc(a1-3)]Gal(b1-4)GlcNAc(b1-2)Man(a1-6)]Man(b1-4)GlcNAc(b1-4)GlcNAc
# Procedure, shortened: as §1
# [36] = molecular target: Fuc(a1-2)[GalNAc(a1-3)]Gal(b1-4)GlcNAc(b1-2)Man(a1-3)[Fuc(a1-2)[GalNAc(a1-3)]Gal(b1-4)GlcNAc(b1-2)Man(a1-6)]Man(b1-4)GlcNAc(b1-4)[Fuc(a1-6)]GlcNAc
# Procedure, shortened: as §1
# [37] = molecular target: Fuc(a1-2)[GalNAc(a1-3)]Gal(b1-4)GlcNAc(b1-3)Gal(b1-4)GlcNAc
# Procedure, shortened: as §1
# [38] = molecular target: Fuc(a1-2)[GalNAc(a1-3)]Gal(b1-4)GlcNAc(b1-3)Gal(b1-4)GlcNAc(b1-3)Gal(b1-4)GlcNAc
# Procedure, shortened: as §1
# [39] = molecular target: Fuc(a1-2)[GalNAc(a1-3)]Gal(b1-4)GlcNAc(b1-3)GalNAc
# Procedure, shortened: as §1
# [40] = molecular target: Fuc(a1-2)[GalNAc(a1-3)]Gal(b1-4)GlcNAc(b1-3)[Fuc(a1-2)[GalNAc(a1-3)]Gal(b1-4)GlcNAc(b1-6)]GalNAc
# Procedure, shortened: as §1
# [41] = molecular target: Fuc(a1-2)[GalNAc(a1-3)]Gal(b1-4)GlcNAc(b1-6)GalNAc
# Procedure, shortened: as §1
# [42] = molecular target: Fuc(a1-2)[GalNAc(a1-3)]Gal(b1-4)[Fuc(a1-3)]GlcNAc
# Procedure, shortened: as §1
# [43] = molecular target: Fuc(a1-2)[GalNAc(a1-3)]Gal(b1-4)[Fuc(a1-3)]GlcNAc(b1-3)GalNAc
# Procedure, shortened: as §1
# [44] = molecular target: Fuc(a1-2)[GalNAc(a1-4)]Gal(b1-4)GlcNAc
# Procedure, shortened: as §1
# [45] = molecular target: Fuc(a1-2)[GalNAc(b1-3)]Gal
# Procedure, shortened: as §1
binder,measurement,setting,value
B1,glycan array binding signal (z-score),[1],0.225
same,glycan array binding signal (z-score),[2],0.681
same,glycan array binding signal (z-score),[3],-0.944
same,glycan array binding signal (z-score),[4],-0.737
same,glycan array binding signal (z-score),[5],0.122
same,glycan array binding signal (z-score),[6],-0.381
same,glycan array binding signal (z-score),[7],-0.03
same,glycan array binding signal (z-score),[8],-0.02
same,glycan array binding signal (z-score),[9],-0.12
same,glycan array binding signal (z-score),[10],-0.485
same,glycan array binding signal (z-score),[11],-0.35
same,glycan array binding signal (z-score),[12],0.602
same,glycan array binding signal (z-score),[13],-0.26
same,glycan array binding signal (z-score),[14],0.176
same,glycan array binding signal (z-score),[15],0.245
same,glycan array binding signal (z-score),[16],-0.601
same,glycan array binding signal (z-score),[17],0.2
same,glycan array binding signal (z-score),[18],-0.439
same,glycan array binding signal (z-score),[19],0.669
same,glycan array binding signal (z-score),[20],0.479
same,glycan array binding signal (z-score),[21],0.405
same,glycan array binding signal (z-score),[22],0.905
same,glycan array binding signal (z-score),[23],-0.081
same,glycan array binding signal (z-score),[24],0.052
same,glycan array binding signal (z-score),[25],0.332
same,glycan array binding signal (z-score),[26],-0.374
same,glycan array binding signal (z-score),[27],0.068
same,glycan array binding signal (z-score),[28],-0.527
same,glycan array binding signal (z-score),[29],0.364
same,glycan array binding signal (z-score),[30],0.855
same,glycan array binding signal (z-score),[31],-0.552
same,glycan array binding signal (z-score),[32],0.022
same,glycan array binding signal (z-score),[33],-0.683
same,glycan array binding signal (z-score),[34],-0.25
same,glycan array binding signal (z-score),[35],0.419
same,glycan array binding signal (z-score),[36],-0.007
same,glycan array binding signal (z-score),[37],-0.747
same,glycan array binding signal (z-score),[38],0.769
same,glycan array binding signal (z-score),[39],-0.54
same,glycan array binding signal (z-score),[40],-0.629
same,glycan array binding signal (z-score),[41],-0.73
same,glycan array binding signal (z-score),[42],-0.716
same,glycan array binding signal (z-score),[43],1.2
same,glycan array binding signal (z-score),[44],-0.983
same,glycan array binding signal (z-score),[45],0.834

# Fetched one by one from above, 4 records:
binder,measurement,setting,value
B1,glycan array binding signal (z-score),[3],-0.944
same,glycan array binding signal (z-score),[8],-0.02
same,glycan array binding signal (z-score),[24],0.052
same,glycan array binding signal (z-score),[39],-0.54
